Source: PubChem BioAssay AID602196 (INSERM, 2012)
Assay: 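Knock-downs that protect lung cancer cells from cisplatin or sensitise them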. System: human A549 lung cancer cells. Knock-down reagent: siRNA pair against human genes. Timing: 48 h transfection before cisplatin; time from cisplatin to read-out not stated. Conditions: cisplatin at a dose killing half of control-siRNA cells; exact dose and duration not given. Measurement: 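Shift in cisplatin death relative to control siRNA, from -50 (all cells die) to +50 (no cells die); siRNAs harmful on their own scored 0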. Reading the numbers: two-siRNA summed score (-2 to +2): higher = both siRNAs protect from cisplatin killing; -2 means both sensitise; mean protection from cisplatin (shift in death) and protection from cisplatin (shift in death), siRNA C: higher = protection from cisplatin killing. Active means: 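siRNAs harmful alone (LDH or WST-1) get 0; others get +1 for less and -1 for more cisplatin killing; genes are active when the two siRNAs give the same sign, summing to ±2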. Meaning of the calls: active = both siRNAs shift cisplatin killing the same way; inactive = no consistent shift, or siRNA harmful alone.
In all, the deposit lists about 23,000 reagents; below is an unselected part. In the full data, 455 (2%) got an active call. 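Active includes both protection and sensitisation; some change values fall well beyond the stated -50 to +50 range.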 Entries without a mark were called inactive. Not all columns of the deposit are shown. Not stated in the record: the amount of reagent.

target,two-siRNA summed score (-2 to +2),mean protection from cisplatin (shift in death) (%),"protection from cisplatin (shift in death), siRNA C (%)"
SMU1,0,-4.8,3.7
LINC02092,0,-9.8,-15.1
BOK,0,2.6,2.6
PIPOX,0,2.1,4.5
LDHAL6A,0,12,4.9
NOD2,0,12.7,12.9
ZNF264,0,5.7,13.3
TASP1,0,3.4,9.9
DTWD1,0,10,12.6
LOC442408,0,-0.4,7.5
NDST1,0,0.6,3.2
RHOV,0,-16.1,-16.7

Continued; the last 2 above are carried over.
target,two-siRNA summed score (-2 to +2),mean protection from cisplatin (shift in death) (%),"protection from cisplatin (shift in death), siRNA C (%)"
NDST1,0,0.6,3.2
RHOV,0,-16.1,-16.7
LOC441346,0,5.2,4.9
DNAAF6,0,2.1,6.3
RNF5,0,5.2,6.8
CTSH,0,0.5,-30.9
PLCB1,0,-32,-13.2
CFAP184,0,4.9,4.3
LOC392084,0,6.6,-2.9
XIRP2,1,5,9.7
DACT1,-1,-6.7,0.5
PBX3,0,1.3,5.9
AKIRIN1,0,5.7,11.2
